{"sequences": {"note": "The chains behind the UniProt entries cited, without tags or fusion partners.", "UniProt Q01341": "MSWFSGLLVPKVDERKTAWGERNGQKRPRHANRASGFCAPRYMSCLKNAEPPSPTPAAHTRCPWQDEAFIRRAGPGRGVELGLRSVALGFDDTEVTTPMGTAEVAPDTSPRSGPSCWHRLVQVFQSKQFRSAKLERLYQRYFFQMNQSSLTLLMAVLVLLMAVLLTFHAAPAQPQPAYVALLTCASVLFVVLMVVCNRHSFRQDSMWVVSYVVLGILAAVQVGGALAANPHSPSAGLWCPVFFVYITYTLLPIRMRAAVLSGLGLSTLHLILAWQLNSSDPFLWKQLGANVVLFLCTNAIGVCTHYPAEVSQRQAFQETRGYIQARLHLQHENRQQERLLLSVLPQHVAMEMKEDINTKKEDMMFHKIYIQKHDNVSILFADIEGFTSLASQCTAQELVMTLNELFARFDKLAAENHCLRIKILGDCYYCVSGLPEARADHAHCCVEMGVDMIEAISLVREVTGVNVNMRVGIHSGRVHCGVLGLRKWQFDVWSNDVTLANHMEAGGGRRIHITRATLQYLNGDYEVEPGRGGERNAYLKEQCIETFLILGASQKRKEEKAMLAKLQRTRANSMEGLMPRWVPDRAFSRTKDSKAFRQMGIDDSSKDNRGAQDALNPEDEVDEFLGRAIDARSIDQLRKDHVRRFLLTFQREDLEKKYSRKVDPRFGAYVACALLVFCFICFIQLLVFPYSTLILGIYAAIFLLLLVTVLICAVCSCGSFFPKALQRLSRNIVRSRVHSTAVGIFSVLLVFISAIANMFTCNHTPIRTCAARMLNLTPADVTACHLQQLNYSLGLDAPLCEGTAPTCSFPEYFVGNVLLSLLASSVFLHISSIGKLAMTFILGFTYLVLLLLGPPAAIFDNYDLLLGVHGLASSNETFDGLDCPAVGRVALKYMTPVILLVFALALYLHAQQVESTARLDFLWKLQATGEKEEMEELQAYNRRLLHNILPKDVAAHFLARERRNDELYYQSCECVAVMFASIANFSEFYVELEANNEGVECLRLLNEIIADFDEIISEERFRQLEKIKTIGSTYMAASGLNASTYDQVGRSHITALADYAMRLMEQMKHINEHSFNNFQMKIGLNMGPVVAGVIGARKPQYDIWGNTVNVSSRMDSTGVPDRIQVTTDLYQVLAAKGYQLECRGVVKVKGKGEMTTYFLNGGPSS"}, "source": "paper PMC11971047", "binders": {"B1": {"name": "mouse adenylyl cyclase 3, HA-tagged (mAC3-HA) (enzyme, UniProt Q8VHH7 1-1145)", "chain": "MPRNQGFSDPEYSAEYSAEYSVSLPSDPDRGVGRTHEISVRNSGSCLCLPRFMRLTFVPESLENLYQTYFKRQRHETLLVLVVFAALFDCYVVVMCAVVFSSDKLAPLMVAGFGLVLDIILFVLCKKGLLPDRVSRKVVPYLLWLLISAQIFSYLGLNFSRAHAASDTVGWQAFFVFSFFITLPLSLSPIVIISVVSCVVHTLVLGVTVAQQQQDELEGMQLLREILANVFLYLCAIIVGIMSYYMADRKHRKAFLEARQSLEVKMNLEEQSQQQENLMLSILPKHVADEMLKDMKKDESQKDQQQFNTMYMYRHENVSILFADIVGFTQLSSACSAQELVKLLNELFARFDKLAAKYHQLRIKILGDCYYCICGLPDYREDHAVCSILMGLAMVEAISYVREKTKTGVDMRVGVHTGTVLGGVLGQKRWQYDVWSTDVTVANKMEAGGIPGRVHISQSTMDCLKGEFDVEPGDGGSRCDYLDEKGIETYLIIASKPEVKKTAQNGLNGSAVPNGAPASSKPSSPALIETKEPNGSAHASGSTSEEAEEQEAQADNPSFPNPRRRLRLQDLADRVVDASEDEHELNQLLNEALLERESAQVVKKRNTFLLTMRFMDPEMETRYSVEKEKQSGAAFSCSCVVLFCTAMVEILIDPWLMTNYVTFVVGEVLLLILTICSMAAIFPRSFPKKLVAFSSWIDRTRWARNTWAMLAIFILVMANVVDMLSCLQYYMGPYNMTAGMELDGGCMENPKYYNYVAVLSLIATIMLVQVSHMVKLTLMLLVTGAVTALNLYAWCPVFDEYDHKRFQEKDSPMVALEKMQVLATPGLNGTDSRLPLVPSKYSMTVMMFVMMLSFYYFSRHVEKLARTLFLWKIEVHDQKERVYEMRRWNEALVTNMLPEHVARHFLGSKKRDEELYSQSYDEIGVMFASLPNFADFYTEESINNGGIECLRFLNEIISDFDSLLDNPKFRVITKIKTIGSTYMAASGVTPDVNTNGFTSSSKEEKSDKERWQHLADLADFALAMKDTLTNINNQSFNNFMLRIGMNKGGVLAGVIGARKPHYDIWGNTVNVASRMESTGVMGNIQVVEETQVILREYGFRFVRRGPIFVKGKGELLTFFLKGRDRPAAFPNGSSVTLPHQVVDNP"}}, "biological_target": "mouse adenylyl cyclase 6, FLAG-tagged (mAC6-FLAG) (mouse) (UniProt Q01341)", "test": "co-IP; CHO K1 cells stably expressing the HA-tagged protein, transiently transfected with the FLAG-tagged partner (or mCherry as control); lysis in 20 mM TRIS/HCl pH 8, 137 mM NaCl, 2 mM EDTA, 1% NP-40; pre-cleared on uncoupled NHS beads; anti-FLAG-M2 magnetic beads overnight at 4 °C; glycine pH 3.0 elution; western blot with HA antibody", "note": "Results are given in words; binding and its absence hold for the method and conditions named. In cells and extracts the contact can be indirect. Some binding calls cover weakened binding; strength is not graded here. Where a sequence is shown, tags or fusion partners need not be part of it.", "data": [{"binder": "B1", "values": [{"measurement": "binding", "result": "binds"}]}]}
